Measured values from US6337346B1 (University of North Carolina at Chapel Hill, priority 1998, dated 2002).
For at least one compound, name, drawing or mass did not settle the structure.

System: melanoma cell lines
Assay: NCI in vitro screen, melanoma cell lines as a group
Format: cell-based, human
Conditions: numbering of Examples 1-13

Row | Compound | log GI50 values in melanoma cell lines (range) (all melanoma cell lines of the NCI screen) | potency / selectivity towards melanoma cell lines (in words) (NCI screen)
1 | CC(=O)c1cc2c(s1)C(=O)c1sccc1C2=O [Compound 19, 2-Acetyl-4,8-dihydrobenzo[1,2-b:5,4-b′]dithiophene-4,8-dione] | −7.48 to <−8.00 | –
2 | CC(=O)c1cc2c(s1)C(=O)c1c(C(C)=O)csc1C2=O [Compound 13, 2,7-Diacetyl-4,8-dihydrobenzo[1,2-b:4,5-b′]dithiophene-4,8-dione] | – | not selective towards melanoma cell lines
